Test results as given in the supplement of paper PMC7238544.
Where a name gives a salt, the structure may show the parent alone. ± gives the standard deviation of the averaged measurements. Some of the results follow. The data scatter; read single values as rough.

Assays:
hAMSC donor 1 [1] = test: Hoechst total cell count ratio vs vehicle control; higher = more cells (less toxicity)
hAMSC donor 2 [2] = test: as above
hAMSC donor 1 [3] = test: transgenic luciferase activity (RLU/mg protein) fold change vs vehicle control (ratio); higher = more transgene expression
hAMSC donor 2 [4] = test: as above
hAMSC donor 1 [5] = test: transfection efficiency (EGFP+ cells / Hoechst count) fold change vs vehicle control (ratio); hAMSC are human adipose-derived mesenchymal stem cells given an EGFP-luciferase plasmid by lipofection; higher = enhanced transfection
hAMSC donor 2 [6] = test: as above
[7] = priming compound concentration 0.2 µM
[8] = priming compound concentration 1.7 µM
[9] = priming compound concentration 13 µM

| Compound | Hoechst total cell count ratio (hAMSC donor 1 [1]; [7]) | Hoechst total cell count ratio (hAMSC donor 1 [1]; [8]) | Hoechst total cell count ratio (hAMSC donor 1 [1]; [9]) | Hoechst total cell count ratio (hAMSC donor 2 [2]; [7]) | Hoechst total cell count ratio (hAMSC donor 2 [2]; [8]) | Hoechst total cell count ratio (hAMSC donor 2 [2]; [9]) | transgenic luciferase activity (hAMSC donor 1 [3]; [7]) | transgenic luciferase activity (hAMSC donor 1 [3]; [8]) | transgenic luciferase activity (hAMSC donor 2 [4]; [8]) | transgenic luciferase activity (hAMSC donor 2 [4]; [9]) | transfection efficiency (hAMSC donor 1 [5]; [7]) | transfection efficiency (hAMSC donor 1 [5]; [8]) | transfection efficiency (hAMSC donor 1 [5]; [9]) | transfection efficiency (hAMSC donor 2 [6]; [7]) | transfection efficiency (hAMSC donor 2 [6]; [8]) | transfection efficiency (hAMSC donor 2 [6]; [9]) | transgenic luciferase activity (hAMSC donor 1 [3]; [9]) | transgenic luciferase activity (hAMSC donor 2 [4]; [7]) |
| --- | --- | --- | --- | --- | --- | --- | --- | --- | --- | --- | --- | --- | --- | --- | --- | --- | --- | --- |
| C[C@]12CCC(=O)C=C1CC[C@@H]1[C@@H]2[C@@H](O)C[C@@]2(C)[C@H]1CC[C@]2(O)C(=O)COC(=O)CCC(=O)O [Hydrocortisone hemisuccinate] | 1.12 ± 0.072 | 1.34 ± 0.26 | 1.34 ± 0.14 | 1.14 ± 0.074 | 0.776 ± 0.06 | 0.965 ± 0.22 | 0.723 ± 0.3 | 1.73 ± 0.56 | 0.677 ± 0.068 | 0.946 ± 0.21 | 1.35 ± 0.34 | 1.78 ± 0.27 | 1.15 ± 0.26 | 0.849 ± 0.22 | 1.46 ± 0.14 | 1.37 ± 0.084 | – | – |
| Nc1ncnc2c1ncn2[C@@H]1O[C@H](CO)[C@@H](O)[C@@H]1O [Vidarabine] | 0.918 ± 0.14 | 1.05 ± 0.22 | 0.711 ± 0.026 | 1.21 ± 0.2 | 0.817 ± 0.12 | 1.04 ± 0.21 | 0.664 ± 0.051 | – | 0.594 ± 0.1 | – | 1.41 ± 0.13 | 1.12 ± 0.14 | 1.29 ± 0.41 | 1.11 ± 0.16 | 1.34 ± 0.16 | 1.28 ± 0.35 | 13.5 ± 5.3 | 0.93 ± 0.12 |
| CC12CC3CC(C)(C1)CC(N)(C3)C2 [Memantine hydrochloride] | 1.46 ± 0.12 | 1.3 ± 0.15 | 1.34 ± 0.24 | 1.16 ± 0.14 | 0.829 ± 0.059 | 1.27 ± 0.26 | 0.51 ± 0.45 | – | 0.505 ± 0.053 | – | 1.35 ± 0.47 | 1.17 ± 0.22 | 1.06 ± 0.081 | 1.18 ± 0.19 | 1.13 ± 0.26 | 0.971 ± 0.23 | 2.26 ± 2 | 0.785 ± 0.029 |
| CC(=O)SCC(Cc1ccccc1)C(=O)NCC(=O)OCc1ccccc1 (centres undefined) [Racecadotril] | 1.05 ± 0.14 | 1.17 ± 0.05 | 1.11 ± 0.18 | 1.52 ± 0.53 | 1.37 ± 0.056 | 2.13 ± 0.36 | – | 1.47 ± 0.21 | 0.266 ± 0.0087 | 0.107 ± 0.05 | 0.969 ± 0.33 | 1.41 ± 0.11 | 0.923 ± 0.49 | 0.856 ± 0.17 | 1.03 ± 0.041 | 1.04 ± 0.31 | – | 0.407 ± 0.025 |
| OC(c1cc(C(F)(F)F)nc2c(C(F)(F)F)cccc12)C1CCCCN1 (centres undefined) [Mefloquine hydrochloride] | 1.18 ± 0.084 | 1.6 ± 0.19 | 1.35 ± 0.12 | 1.06 ± 0.053 | 0.821 ± 0.11 | 0.554 ± 0.14 | 0.668 ± 0.19 | 0.842 ± 0.23 | 0.345 ± 0.077 | 0.339 ± 0.13 | 1.05 ± 0.17 | 1.05 ± 0.057 | 0.609 ± 0.076 | 0.805 ± 0.11 | 1.51 ± 0.088 | 1.4 ± 0.25 | – | – |
| CCN(CC)CCOC(=O)C1(C2CCCCC2)CCCCC1 [Dicyclomine hydrochloride] | 1.24 ± 0.23 | 1.42 ± 0.12 | 1.21 ± 0.18 | 1.17 ± 0.15 | 0.849 ± 0.1 | 1.21 ± 0.18 | 0.653 ± 0.36 | – | 0.499 ± 0.14 | – | 1.45 ± 0.42 | 0.985 ± 0.15 | 1.08 ± 0.23 | 0.861 ± 0.017 | 1.33 ± 0.22 | 0.984 ± 0.17 | 5.75 ± 1.6 | 0.693 ± 0.15 |
| c1ccc(CC2=NCCN2)cc1 [Priscoline hydrochloride] | 1.03 ± 0.062 | 1.06 ± 0.094 | 1.25 ± 0.1 | 1.12 ± 0.085 | 1.15 ± 0.15 | 0.963 ± 0.04 | – | – | 0.915 ± 0.035 | 0.867 ± 0.094 | 1.11 ± 0.28 | 1.37 ± 0.31 | 0.721 ± 0.22 | 1.07 ± 0.13 | 1.11 ± 0.062 | 0.879 ± 0.16 | 0.665 ± 0.52 | 0.938 ± 0.13 |
| C#C[C@]1(O)CC[C@H]2[C@@H]3CCC4=Cc5oncc5C[C@]4(C)[C@H]3CC[C@@]21C [Danazol] | 0.984 ± 0.14 | 0.949 ± 0.16 | 1.16 ± 0.092 | 1.11 ± 0.049 | 0.969 ± 0.018 | 0.978 ± 0.39 | 0.828 ± 0.42 | 0.474 ± 0.32 | 0.692 ± 0.081 | 0.374 ± 0.075 | 0.95 ± 0.087 | 1.06 ± 0.33 | 0.91 ± 0.14 | 1.11 ± 0.11 | 1.63 ± 0.079 | 1.37 ± 0.33 | – | – |
| C=C(CC)C(=O)c1ccc(OCC(=O)O)c(Cl)c1Cl [Ethacrynic acid] | 1.18 ± 0.11 | 0.908 ± 0.2 | 0.883 ± 0.089 | 1.41 ± 0.21 | 1.34 ± 0.41 | 1.26 ± 0.46 | – | 1.84 ± 1.7 | 0.718 ± 0.042 | 0.395 ± 0.054 | 1.28 ± 0.3 | 0.971 ± 0.41 | 1.27 ± 0.23 | 1.05 ± 0.11 | 1.18 ± 0.048 | 1.13 ± 0.39 | 0.792 ± 0.17 | – |
| CCc1cc(C(N)=S)ccn1 [Ethionamide] | 1.18 ± 0.1 | 0.587 ± 0.038 | 0.878 ± 0.12 | 0.839 ± 0.23 | 1.37 ± 0.11 | 1.54 ± 0.23 | – | 0.774 ± 0.25 | 0.667 ± 0.075 | 0.333 ± 0.071 | 1.5 ± 0.53 | 1.4 ± 0.14 | 1.76 ± 0.4 | 0.972 ± 0.24 | 1.16 ± 0.063 | 0.85 ± 0.059 | 1.25 ± 0.045 | – |
| CCc1c(C)[nH]c2c1C(=O)C(CN1CCOCC1)CC2 (centres undefined) [Molindone hydrochloride] | 1.13 ± 0.073 | 1.31 ± 0.066 | 1.26 ± 0.24 | 1.17 ± 0.094 | 0.833 ± 0.093 | 0.85 ± 0.12 | 0.607 ± 0.098 | 0.937 ± 0.24 | 0.563 ± 0.077 | 0.436 ± 0.07 | 1.23 ± 0.22 | 1.38 ± 0.14 | 1.15 ± 0.19 | 0.829 ± 0.07 | 1.47 ± 0.17 | 1.34 ± 0.083 | – | – |
| NS(=O)(=O)c1cc2c(cc1Cl)N=CNS2(=O)=O [Chlorothiazide] | 1.1 ± 0.074 | 1.29 ± 0.26 | 1.28 ± 0.3 | 1.07 ± 0.11 | 0.907 ± 0.12 | 0.51 ± 0.07 | 0.832 ± 0.72 | 0.797 ± 0.21 | 0.669 ± 0.051 | 0.488 ± 0.13 | 1.36 ± 0.085 | 1.26 ± 0.12 | 0.965 ± 0.2 | 0.933 ± 0.12 | 1.42 ± 0.24 | 1.76 ± 0.46 | – | – |
| CC(=O)O[C@]1(C(C)=O)CC[C@H]2[C@@H]3C[C@H](C)C4=CC(=O)CC[C@]4(C)[C@H]3CC[C@@]21C [Medroxyprogesterone 17-acetate] | 0.95 ± 0.19 | 1.1 ± 0.18 | 1.07 ± 0.16 | 1.13 ± 0.4 | 1.57 ± 0.094 | 1.77 ± 0.078 | – | 1.05 ± 0.33 | 1.27 ± 0.2 | 0.77 ± 0.17 | 1.73 ± 0.4 | 0.846 ± 0.23 | 1.99 ± 0.78 | 1.39 ± 0.23 | 1.65 ± 0.091 | 1.37 ± 0.21 | 1.31 ± 0.17 | – |
| CCOC(=O)C1=C(C)NC(C)=C(C(=O)OC)C1c1cccc([N+](=O)[O-])c1 (centres undefined) [Nitrendipine] | 1.36 ± 0.16 | 1.11 ± 0.13 | 0.701 ± 0.078 | 1.29 ± 0.58 | 0.939 ± 0.15 | 1.49 ± 0.43 | – | 1.64 ± 1.3 | 0.335 ± 0.025 | 0.0889 ± 0.038 | 1.47 ± 0.4 | 1.26 ± 0.28 | 1.33 ± 0.21 | 1.3 ± 0.43 | 1.01 ± 0.056 | 1.09 ± 0.067 | – | 0.485 ± 0.049 |

Full records, looked up by structure. Values in the order: Hoechst total cell count ratio (hAMSC donor 1 [1]; [7]) | Hoechst total cell count ratio (hAMSC donor 1 [1]; [8]) | Hoechst total cell count ratio (hAMSC donor 1 [1]; [9]) | Hoechst total cell count ratio (hAMSC donor 2 [2]; [7]) | Hoechst total cell count ratio (hAMSC donor 2 [2]; [8]) | Hoechst total cell count ratio (hAMSC donor 2 [2]; [9]) | transgenic luciferase activity (hAMSC donor 1 [3]; [7]) | transgenic luciferase activity (hAMSC donor 1 [3]; [8]) | transgenic luciferase activity (hAMSC donor 2 [4]; [8]) | transgenic luciferase activity (hAMSC donor 2 [4]; [9]) | transfection efficiency (hAMSC donor 1 [5]; [7]) | transfection efficiency (hAMSC donor 1 [5]; [8]) | transfection efficiency (hAMSC donor 1 [5]; [9]) | transfection efficiency (hAMSC donor 2 [6]; [7]) | transfection efficiency (hAMSC donor 2 [6]; [8]) | transfection efficiency (hAMSC donor 2 [6]; [9]) | transgenic luciferase activity (hAMSC donor 1 [3]; [9]) | transgenic luciferase activity (hAMSC donor 2 [4]; [7])
NS(=O)(=O)c1cc2c(cc1Cl)N=CNS2(=O)=O [Chlorothiazide] is listed with 1.1 ± 0.074 | 1.29 ± 0.26 | 1.28 ± 0.3 | 1.07 ± 0.11 | 0.907 ± 0.12 | 0.51 ± 0.07 | 0.832 ± 0.72 | 0.797 ± 0.21 | 0.669 ± 0.051 | 0.488 ± 0.13 | 1.36 ± 0.085 | 1.26 ± 0.12 | 0.965 ± 0.2 | 0.933 ± 0.12 | 1.42 ± 0.24 | 1.76 ± 0.46 | – | –
C#C[C@]1(O)CC[C@H]2[C@@H]3CCC4=Cc5oncc5C[C@]4(C)[C@H]3CC[C@@]21C [Danazol] is listed with 0.984 ± 0.14 | 0.949 ± 0.16 | 1.16 ± 0.092 | 1.11 ± 0.049 | 0.969 ± 0.018 | 0.978 ± 0.39 | 0.828 ± 0.42 | 0.474 ± 0.32 | 0.692 ± 0.081 | 0.374 ± 0.075 | 0.95 ± 0.087 | 1.06 ± 0.33 | 0.91 ± 0.14 | 1.11 ± 0.11 | 1.63 ± 0.079 | 1.37 ± 0.33 | – | –
